Source: the supplement of paper PMC10849652
Some of the results follow.

Chains of the proteins cited; added tags and fusions are not shown. Lines headed by an entry give the natural chain unless they say otherwise; changes in a name come on top.
UniProt Q9Y4A5, whole entry, looked up: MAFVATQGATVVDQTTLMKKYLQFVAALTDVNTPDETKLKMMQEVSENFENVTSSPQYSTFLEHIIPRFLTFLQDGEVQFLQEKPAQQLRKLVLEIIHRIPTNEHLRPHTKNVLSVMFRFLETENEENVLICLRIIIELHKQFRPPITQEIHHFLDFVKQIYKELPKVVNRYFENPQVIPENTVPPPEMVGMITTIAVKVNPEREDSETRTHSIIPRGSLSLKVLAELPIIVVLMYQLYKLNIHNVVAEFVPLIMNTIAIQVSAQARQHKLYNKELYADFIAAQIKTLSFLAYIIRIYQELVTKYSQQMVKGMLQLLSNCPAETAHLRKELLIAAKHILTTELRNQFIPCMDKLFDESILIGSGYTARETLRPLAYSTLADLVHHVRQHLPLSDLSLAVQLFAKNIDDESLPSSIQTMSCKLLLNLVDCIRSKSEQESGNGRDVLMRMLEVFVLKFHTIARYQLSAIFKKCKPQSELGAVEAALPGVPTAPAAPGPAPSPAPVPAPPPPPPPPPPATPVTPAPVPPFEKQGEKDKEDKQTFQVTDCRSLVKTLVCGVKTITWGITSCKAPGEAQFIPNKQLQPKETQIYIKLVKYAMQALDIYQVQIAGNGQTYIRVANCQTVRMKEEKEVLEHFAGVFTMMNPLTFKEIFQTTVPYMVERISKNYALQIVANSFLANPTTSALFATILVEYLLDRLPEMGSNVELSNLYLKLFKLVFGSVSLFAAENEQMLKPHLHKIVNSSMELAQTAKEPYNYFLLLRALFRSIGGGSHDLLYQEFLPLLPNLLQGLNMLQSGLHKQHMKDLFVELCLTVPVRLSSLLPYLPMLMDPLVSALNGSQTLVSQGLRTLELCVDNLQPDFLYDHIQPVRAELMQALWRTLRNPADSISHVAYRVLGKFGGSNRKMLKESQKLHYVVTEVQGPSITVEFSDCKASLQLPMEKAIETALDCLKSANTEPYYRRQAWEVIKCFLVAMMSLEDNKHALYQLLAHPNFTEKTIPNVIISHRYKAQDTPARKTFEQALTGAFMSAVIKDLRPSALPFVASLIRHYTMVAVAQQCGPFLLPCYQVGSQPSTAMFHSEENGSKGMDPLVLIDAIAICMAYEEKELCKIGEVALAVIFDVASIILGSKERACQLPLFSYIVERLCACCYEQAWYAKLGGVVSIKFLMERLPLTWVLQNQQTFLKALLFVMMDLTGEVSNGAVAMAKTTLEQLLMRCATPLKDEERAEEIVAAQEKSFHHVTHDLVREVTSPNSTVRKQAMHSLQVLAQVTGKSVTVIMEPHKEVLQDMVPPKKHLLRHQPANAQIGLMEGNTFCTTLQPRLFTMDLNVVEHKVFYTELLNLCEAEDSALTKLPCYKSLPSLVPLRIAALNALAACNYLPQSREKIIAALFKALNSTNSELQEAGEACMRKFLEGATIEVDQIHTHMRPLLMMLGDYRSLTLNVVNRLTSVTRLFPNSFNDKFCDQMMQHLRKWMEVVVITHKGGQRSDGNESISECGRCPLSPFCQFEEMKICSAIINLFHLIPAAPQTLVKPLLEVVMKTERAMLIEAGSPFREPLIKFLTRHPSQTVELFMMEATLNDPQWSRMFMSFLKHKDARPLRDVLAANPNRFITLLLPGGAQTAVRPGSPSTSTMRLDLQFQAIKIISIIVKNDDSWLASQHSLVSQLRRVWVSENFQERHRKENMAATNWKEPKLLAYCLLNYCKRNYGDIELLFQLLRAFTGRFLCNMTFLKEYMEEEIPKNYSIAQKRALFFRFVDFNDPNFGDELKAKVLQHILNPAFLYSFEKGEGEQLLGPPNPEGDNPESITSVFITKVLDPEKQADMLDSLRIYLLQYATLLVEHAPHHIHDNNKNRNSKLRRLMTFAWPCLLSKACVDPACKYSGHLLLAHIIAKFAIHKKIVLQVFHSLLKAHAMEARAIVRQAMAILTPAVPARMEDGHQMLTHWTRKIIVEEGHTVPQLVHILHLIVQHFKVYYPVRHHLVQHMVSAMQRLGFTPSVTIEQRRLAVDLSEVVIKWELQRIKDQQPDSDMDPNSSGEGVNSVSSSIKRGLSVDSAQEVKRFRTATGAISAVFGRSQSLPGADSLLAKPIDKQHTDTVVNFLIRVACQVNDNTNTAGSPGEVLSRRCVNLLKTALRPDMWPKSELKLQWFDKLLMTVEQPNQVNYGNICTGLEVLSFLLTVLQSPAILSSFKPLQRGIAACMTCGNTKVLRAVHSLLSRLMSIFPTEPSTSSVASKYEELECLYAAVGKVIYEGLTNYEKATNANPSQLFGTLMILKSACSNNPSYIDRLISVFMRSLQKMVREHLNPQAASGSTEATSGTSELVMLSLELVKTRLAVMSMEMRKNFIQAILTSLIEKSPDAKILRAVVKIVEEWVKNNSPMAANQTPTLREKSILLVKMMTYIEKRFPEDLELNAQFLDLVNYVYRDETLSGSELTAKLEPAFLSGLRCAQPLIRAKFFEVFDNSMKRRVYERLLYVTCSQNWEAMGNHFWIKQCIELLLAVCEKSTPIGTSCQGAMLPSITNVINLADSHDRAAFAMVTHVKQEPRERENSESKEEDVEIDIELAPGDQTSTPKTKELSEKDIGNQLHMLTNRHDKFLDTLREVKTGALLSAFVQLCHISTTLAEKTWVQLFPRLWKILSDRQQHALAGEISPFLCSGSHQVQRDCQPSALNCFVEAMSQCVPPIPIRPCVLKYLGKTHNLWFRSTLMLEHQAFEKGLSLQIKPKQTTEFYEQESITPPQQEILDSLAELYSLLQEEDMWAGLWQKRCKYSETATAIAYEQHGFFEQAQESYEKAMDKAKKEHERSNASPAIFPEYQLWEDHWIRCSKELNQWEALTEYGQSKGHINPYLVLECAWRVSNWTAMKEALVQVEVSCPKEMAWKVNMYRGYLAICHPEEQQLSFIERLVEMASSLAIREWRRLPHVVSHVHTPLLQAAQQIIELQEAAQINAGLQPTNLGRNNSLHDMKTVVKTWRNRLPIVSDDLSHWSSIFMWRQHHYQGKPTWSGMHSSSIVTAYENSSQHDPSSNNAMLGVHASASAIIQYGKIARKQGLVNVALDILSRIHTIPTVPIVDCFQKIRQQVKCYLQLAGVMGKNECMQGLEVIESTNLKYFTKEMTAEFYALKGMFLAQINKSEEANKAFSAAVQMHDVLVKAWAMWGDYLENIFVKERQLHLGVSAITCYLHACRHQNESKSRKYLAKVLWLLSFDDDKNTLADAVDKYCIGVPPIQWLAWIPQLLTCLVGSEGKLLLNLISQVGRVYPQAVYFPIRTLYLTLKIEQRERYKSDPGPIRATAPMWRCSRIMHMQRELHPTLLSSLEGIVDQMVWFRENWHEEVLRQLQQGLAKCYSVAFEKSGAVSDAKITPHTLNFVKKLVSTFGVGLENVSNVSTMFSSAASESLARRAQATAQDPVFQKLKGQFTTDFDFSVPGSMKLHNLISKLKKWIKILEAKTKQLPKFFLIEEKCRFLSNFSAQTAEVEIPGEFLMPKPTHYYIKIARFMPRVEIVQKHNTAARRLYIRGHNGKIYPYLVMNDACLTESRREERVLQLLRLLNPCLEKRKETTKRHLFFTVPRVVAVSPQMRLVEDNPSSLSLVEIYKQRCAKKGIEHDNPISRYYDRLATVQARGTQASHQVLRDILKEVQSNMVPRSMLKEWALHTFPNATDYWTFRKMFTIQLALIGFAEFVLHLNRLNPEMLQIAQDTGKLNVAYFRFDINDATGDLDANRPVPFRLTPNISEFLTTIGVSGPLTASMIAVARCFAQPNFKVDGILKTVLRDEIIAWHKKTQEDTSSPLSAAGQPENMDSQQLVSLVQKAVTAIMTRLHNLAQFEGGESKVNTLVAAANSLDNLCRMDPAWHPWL
UniProt P51580: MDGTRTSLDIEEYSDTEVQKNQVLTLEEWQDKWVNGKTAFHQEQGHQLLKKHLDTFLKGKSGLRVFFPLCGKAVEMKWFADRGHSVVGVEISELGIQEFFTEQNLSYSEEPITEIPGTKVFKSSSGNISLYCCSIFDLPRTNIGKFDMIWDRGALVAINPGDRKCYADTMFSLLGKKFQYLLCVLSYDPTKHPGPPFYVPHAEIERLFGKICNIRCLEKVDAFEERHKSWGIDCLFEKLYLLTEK
UniProt Q9H496: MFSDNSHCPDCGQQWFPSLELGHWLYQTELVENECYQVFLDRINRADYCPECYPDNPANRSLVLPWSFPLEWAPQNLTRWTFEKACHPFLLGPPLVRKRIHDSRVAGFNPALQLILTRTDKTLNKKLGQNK
UniProt Q15025: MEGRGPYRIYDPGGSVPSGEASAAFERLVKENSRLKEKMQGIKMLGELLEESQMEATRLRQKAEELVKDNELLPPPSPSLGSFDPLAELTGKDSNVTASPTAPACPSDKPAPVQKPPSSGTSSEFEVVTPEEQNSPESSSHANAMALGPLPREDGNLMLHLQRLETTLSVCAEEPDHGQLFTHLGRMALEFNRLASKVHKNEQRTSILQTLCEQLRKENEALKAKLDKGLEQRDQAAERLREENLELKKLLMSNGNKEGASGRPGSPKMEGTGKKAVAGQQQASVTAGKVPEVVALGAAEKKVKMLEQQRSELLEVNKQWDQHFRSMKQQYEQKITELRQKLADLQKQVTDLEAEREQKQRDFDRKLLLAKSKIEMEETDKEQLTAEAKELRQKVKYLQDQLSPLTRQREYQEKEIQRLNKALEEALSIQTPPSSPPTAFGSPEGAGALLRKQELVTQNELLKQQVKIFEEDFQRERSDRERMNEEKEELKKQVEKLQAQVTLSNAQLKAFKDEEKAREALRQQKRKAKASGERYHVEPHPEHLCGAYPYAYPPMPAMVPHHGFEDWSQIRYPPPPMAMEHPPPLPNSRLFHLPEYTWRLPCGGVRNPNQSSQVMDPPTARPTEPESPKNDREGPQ
UniProt P36406: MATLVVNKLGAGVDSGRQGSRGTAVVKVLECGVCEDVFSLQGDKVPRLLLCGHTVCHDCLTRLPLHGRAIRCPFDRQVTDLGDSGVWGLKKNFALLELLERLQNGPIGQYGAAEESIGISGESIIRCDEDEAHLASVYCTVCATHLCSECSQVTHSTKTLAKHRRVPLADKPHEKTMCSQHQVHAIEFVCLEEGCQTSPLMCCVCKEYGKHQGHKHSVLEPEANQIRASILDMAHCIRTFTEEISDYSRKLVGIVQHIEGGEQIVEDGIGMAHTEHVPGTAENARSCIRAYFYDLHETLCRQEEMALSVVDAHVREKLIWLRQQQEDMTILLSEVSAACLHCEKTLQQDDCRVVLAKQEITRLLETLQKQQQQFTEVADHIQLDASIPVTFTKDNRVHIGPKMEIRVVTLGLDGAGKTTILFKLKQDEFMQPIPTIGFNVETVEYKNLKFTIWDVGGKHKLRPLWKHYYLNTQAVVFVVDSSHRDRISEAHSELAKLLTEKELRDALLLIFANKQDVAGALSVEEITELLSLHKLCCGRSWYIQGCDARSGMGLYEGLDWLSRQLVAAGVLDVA
UniProt Q8N4H5: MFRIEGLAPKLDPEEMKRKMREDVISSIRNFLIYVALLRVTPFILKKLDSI
UniProt Q96GJ1: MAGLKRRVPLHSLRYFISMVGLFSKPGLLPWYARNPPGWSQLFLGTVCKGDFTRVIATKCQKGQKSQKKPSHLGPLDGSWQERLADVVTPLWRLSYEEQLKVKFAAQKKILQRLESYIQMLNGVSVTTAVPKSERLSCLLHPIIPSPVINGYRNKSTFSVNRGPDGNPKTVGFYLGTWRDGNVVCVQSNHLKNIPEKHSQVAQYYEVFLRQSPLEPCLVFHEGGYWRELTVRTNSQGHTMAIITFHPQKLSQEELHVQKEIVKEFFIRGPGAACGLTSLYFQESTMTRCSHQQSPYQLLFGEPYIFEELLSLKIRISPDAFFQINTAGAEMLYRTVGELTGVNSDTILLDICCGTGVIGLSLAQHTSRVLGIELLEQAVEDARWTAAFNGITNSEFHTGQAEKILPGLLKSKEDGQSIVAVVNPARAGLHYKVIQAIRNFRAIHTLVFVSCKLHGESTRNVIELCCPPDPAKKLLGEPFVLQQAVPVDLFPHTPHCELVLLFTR
UniProt Q9UL33, whole entry, looked up: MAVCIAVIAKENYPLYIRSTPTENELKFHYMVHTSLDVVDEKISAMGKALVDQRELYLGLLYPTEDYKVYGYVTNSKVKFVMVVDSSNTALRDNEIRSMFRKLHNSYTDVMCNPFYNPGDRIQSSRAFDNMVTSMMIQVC
UniProt Q15035: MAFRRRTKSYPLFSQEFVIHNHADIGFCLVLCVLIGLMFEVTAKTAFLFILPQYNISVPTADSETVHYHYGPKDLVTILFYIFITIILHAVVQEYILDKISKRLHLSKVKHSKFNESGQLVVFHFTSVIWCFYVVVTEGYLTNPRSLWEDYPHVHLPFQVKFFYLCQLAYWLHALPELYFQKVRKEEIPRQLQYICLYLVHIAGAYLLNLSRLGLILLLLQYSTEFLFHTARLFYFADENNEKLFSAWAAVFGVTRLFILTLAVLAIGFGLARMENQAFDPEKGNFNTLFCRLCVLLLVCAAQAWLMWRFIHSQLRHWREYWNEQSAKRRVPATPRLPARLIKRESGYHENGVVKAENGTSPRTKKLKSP

Experiments:
Test in all cases: log2 fold change, soluble protein after heating vs DMSO (PISA); higher = thermal stabilisation; K562 cells, 10 uM, 30 min; active = over 0.2 and 3.5 SD of the protein, either way, in both replicates (recomputed)
[1] = compound: CC[C@@H]1C(=O)N(C)c2cnc(Nc3ccc(C(=O)NC4CCN(C)CC4)cc3OC)nc2N1C1CCCC1
Summary of the method: (§1)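 Thermal stability values are relative to control samples and come from duplicates. They are expressed as log2 fold changes. For measurement, K562 cells (2×10^6 cells/mL) received 10 μM compound for 30 min, and aliquots were heated for 3 min over 48°C-58°C, pooled, and extracted at 4°C in PBS with 0.5% NP-40. Soluble protein, the supernatant after 21,000xg for 90 min, was quantified by TMTpro 16plex LC-MS/MS with equalised channel sums.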

[2] = compound: CC[C@@H]1C(=O)N(C)c2cnc(Nc3ccc(C(=O)N[C@H]4CC[C@H](N5CCN(CC6CC6)CC5)CC4)cc3OC)nc2N1C(C)C [volasertib]
Summary of the method: as §1

[3] = compound: CC[C@H](C)N1C=C(C2=C(C=C(C=C21)C3=CN=C(C=C3)N4CCNCC4)C(=O)NCC5=C(C=C(NC5=O)C)C)C
Summary of the method: as §1

[4] = compound: CC[C@H](C)[C@@H](C(=O)N[C@@H]([C@@H](C)O)C(=O)N[C@@H](CC(C)C)C(=O)[C@]1(CO1)C)NC(=O)[C@H]([C@@H](C)CC)N(C)C(=O)C [epoxomicin]
Summary of the method: as §1

[5] = compound: CCn1cc(-c2ccnc3[nH]c(-c4cccc(CN(C)C)c4)cc23)c(-c2ccc(NC(=O)N(C)C)cc2)n1
Summary of the method: as §1

[6] = compound: CN(C)CC(=O)Nc1ccc2[nH]c(=O)c3ccccc3c2c1
Summary of the method: as §1

[7] = compound: CN1C2=C(C3=C1C(=O)N(N=C3)CC4=CC(=CC=C4)N)SC(=C2)S(=O)C
Summary of the method: as §1

[8] = compound: CN1CCC(CNc2ccc3ncc(-c4cccc(OC(F)(F)F)c4)n3n2)CC1
Summary of the method: as §1

[9] = compound: CCn1c(C(=O)N(C2CC2)C2CC2)cc2c3c(ncn3C)c(Nc3cc(C)n(C)n3)nc21
Summary of the method: as §1

[10] = compound: CN(CCOC1=CC=C(C=C1)C[C@H]2C(=O)NC(=O)S2)C3=CC=CC=N3 (racemic) [rosiglitazone]
Summary of the method: as §1

Measured: log2 fold change

TOM1L1 (UniProt O75674)
active: [8] 0.385
inactive: [1] 0.072 | [2] -0.052 | [3] 0.027 | [4] 0.013 | [5] -0.004 | [6] 0.043 | [7] -0.053

TOMM40L (UniProt Q969M1)
inactive: [1] 0.021 | [2] 0.06 | [3] -0.099 | [4] -0.005 | [9] 0.004 | [5] -0.059 | [6] 0.094 | [10] 0.395 | [7] -0.018 | [8] 0.081

TPST2 (UniProt O60704)
inactive: [1] -0.084 | [2] -0.254 | [3] -0.027 | [4] 0.041 | [9] -0.022 | [5] 0.072 | [6] 0.005 | [10] 0.031 | [7] 0.008 | [8] -0.035

TNPO2 (UniProt O14787)
active: [2] -0.36
inactive: [1] -0.176 | [3] 0.106 | [4] 0.029 | [5] -0.027 | [6] 0.111 | [7] 0.016 | [8] 0.06

TRRAP (UniProt Q9Y4A5)
inactive: [1] 0.001 | [2] -0.163 | [3] -0.03 | [4] -0.009 | [9] 0.005 | [5] 0.01 | [6] -0.032 | [10] -0.02 | [7] 0.012 | [8] 0.07

TRIM24 (UniProt O15164)
inactive: [1] -0.199 | [2] -0.234 | [3] 0.068 | [4] 0.321 | [9] -0.032 | [5] 0.026 | [6] 0.2 | [10] 0.065 | [7] 0.099 | [8] -0.089

TPMT (UniProt P51580)
inactive: [1] -0.022 | [2] 0 | [3] 0.007 | [4] 0.025 | [9] 0.048 | [5] -0.019 | [6] -0.005 | [10] 0.035 | [7] -0.072 | [8] -0.042

TRAM1 (UniProt Q15629)
active: [8] -0.759
inactive: [1] -0.216 | [2] -0.161 | [3] 0.031 | [4] 0.008 | [5] 0.066 | [6] 0.062 | [7] -0.001

TRAFD1 (UniProt O14545)
inactive: [1] -0.001 | [2] 0.032 | [3] -0.004 | [4] 0.041 | [9] 0.025 | [5] 0 | [6] -0.007 | [10] -0.027 | [7] -0.013 | [8] 0.067

Looked up one by one from the list above, 2 records:
TRRAP (UniProt Q9Y4A5)
inactive: [1] 0.001 | [2] -0.163 | [3] -0.03 | [4] -0.009 | [9] 0.005 | [5] 0.01 | [6] -0.032 | [10] -0.02 | [7] 0.012 | [8] 0.07

TRAM1 (UniProt Q15629)
active: [8] -0.759
inactive: [1] -0.216 | [2] -0.161 | [3] 0.031 | [4] 0.008 | [5] 0.066 | [6] 0.062 | [7] -0.001

(further entries)

TOE1 (UniProt Q96GM8)
inactive: [1] 0.067 | [2] 0.154 | [3] -0.023 | [4] -0.148 | [5] 0.035 | [6] -0.043 | [7] 0.107
active: [8] 0.35

TOR1AIP2 (UniProt Q9H496)
inactive: [1] -0.022 | [3] -0.044 | [4] 0.33 | [10] 0.057

TRIM4 (UniProt Q9C037)
inactive: [1] 0.01 | [2] -0.042 | [3] 0.178 | [4] 0.111 | [5] -0.069 | [6] 0.03 | [8] 0.294

TOR1AIP1 (UniProt Q5JTV8)
inactive: [1] 0.117 | [2] -0.146 | [3] 0.078 | [4] -0.042 | [5] -0.029 | [10] -0.01 | [7] -0.012 | [8] 0.063

TNIP1 (UniProt Q15025)
inactive: [1] -0.018 | [2] -0.237 | [4] 0.038 | [9] -0.104 | [10] 0.006

TRIM23 (UniProt P36406)
inactive: [1] 0.013 | [3] 0.049 | [5] -0.089 | [6] 0.025 | [7] -0.116 | [8] -0.228

TRMT5 (UniProt Q32P41)
inactive: [1] -0.163 | [3] -0.095 | [4] -0.087 | [9] -0.019 | [5] 0.005 | [6] 0.214 | [10] -0.174 | [8] -0.107

TOMM5 isoform 2 (UniProt Q8N4H5)
inactive: [1] -0.003 | [2] -0.032 | [3] -0.049 | [5] 0.039 | [6] -0.046 | [7] 0.041 | [8] 0.116
active: [4] 0.538

TNFRSF8 (UniProt P28908)
inactive: [1] 0.134 | [2] 0.011 | [3] -0.034 | [4] 0.016 | [5] -0.016 | [6] 0.009 | [7] -0.051 | [8] 0.201

TRPM7 (UniProt Q96QT4)
inactive: [1] 0.023 | [2] -0.069 | [4] -0.094 | [9] 0.002 | [5] 0.048 | [6] 0.044 | [10] 0.071 | [7] 0.096 | [8] -0.043

TRAPPC3 (UniProt O43617)
inactive: [1] -0.019 | [2] -0.118 | [3] -0.02 | [4] -0.029 | [5] 0.04 | [6] -0.016 | [7] -0.051 | [8] -0.059

TRAPPC6B (UniProt Q86SZ2)
inactive: [1] -0.015 | [2] -0.002 | [3] -0.011 | [4] 0.146 | [5] -0.05 | [6] -0.01 | [7] -0.026 | [8] -0.08

TRIP12 isoform 3 (UniProt Q14669)
inactive: [1] 0.219 | [3] 0.034 | [4] 0.019 | [5] 0.064 | [6] -0.136 | [10] 0.096 | [7] -0.027 | [8] -0.013

TRMT61A (UniProt Q96FX7)
inactive: [1] 0.044 | [2] 0.161 | [3] 0.022 | [4] -0.061 | [5] 0.043 | [6] -0.098 | [7] 0.099 | [8] -0.001

TNIK isoform 3 (UniProt Q9UKE5)
inactive: [1] 0.12 | [2] 0 | [9] -0.013 | [5] -0.046 | [6] -0.018 | [10] -0.03 | [7] -0.004 | [8] -0.006

TRMT2B (UniProt Q96GJ1)
inactive: [1] 0.081 | [2] 0.055 | [3] -0.038 | [9] -0.021 | [5] 0.051 | [6] -0.091 | [10] -0.168 | [7] 0.019 | [8] -0.009

TRAPPC2L (UniProt Q9UL33)
inactive: [1] -0.109 | [2] -0.065 | [3] 0.008 | [4] 0.06 | [5] -0.042 | [6] 0.128 | [7] 0.007 | [8] 0.001

TRAM2 (UniProt Q15035)
inactive: [1] -0.243 | [2] -0.27 | [9] -0.025 | [6] 0.181 | [10] 0.16

TRIM44 (UniProt Q96DX7)
inactive: [1] 0.003 | [2] -0.028 | [3] -0.024 | [5] 0.005 | [6] -0.004 | [7] -0.069 | [8] 0.041

TRMT2A (UniProt Q8IZ69)
inactive: [1] 0.01 | [2] 0.016 | [3] 0.044 | [4] -0.083 | [5] -0.003 | [6] 0.034 | [7] 0.1 | [8] -0.198

TSC2 (UniProt P49815)
inactive: [1] -0.062 | [2] -0.23 | [4] -0.01 | [5] 0.016 | [8] -0.041
